# Source: PubChem BioAssay AID540256 (National Center for Advancing Translational Sciences (NCATS), 2011)
# Hit rate of the full screen: of about 300,000 compounds, about 3,700 (1.2%) were called active. The inconclusive results got no clear call from the source; some entries with a clear call stand among them for comparison. Calls follow the shape of the full dose curve; tested in HEK293 cells. Where the call is inconclusive, the potency comes from a doubtful curve fit.
# Assay: qHTS for Inhibitors of binding or entry into cells for Lassa Virus; also: nearly all actives have a fitted effect of over 50% in size
# Conditions: Lassa virus pseudotype entry inhibition, cell reporter; activity change, negative = inhibition: at 37.9 µM (top of the series) unless noted
# % is scaled to controls: 0 for no effect and ±100 for the full control effect; potency is read from the fitted curve at half-maximal effect.
SMILES,"activity change, negative = inhibition",Potency
COc1cccc(CN(C(=O)c2cccs2)C2CCS(=O)(=O)C2)c1 (centres undefined),inactive: -3.31% [at 46.1 µM],–
Cc1nnc(N2CCC(C(=O)NCCc3ccccc3)CC2)c2nn(-c3ccc(Cl)cc3)c(C)c12,inactive: 11.5% [at 46.1 µM],–
COc1cc(OC)c(NS(=O)(=O)c2cc(-c3cnc(C4CC4)o3)ccc2C)cc1Cl,–,"inconclusive: 20 µM [inhibitor, single point]"
Cc1c(CCOC(=O)C23CC4(C)CC(C)(CC(C)(C4)C2)C3)sc[n+]1CC(=O)c1ccccc1,inactive: -13.5%,–
Cc1c(NC(=O)c2cc3ccccc3o2)c(=O)n(-c2ccccc2)n1C,inactive: 1.24%,–
CC(C)(C)C(=O)NC1(C(F)(F)F)C(=O)Nc2c1c(=O)[nH]c(=O)n2-c1ccccc1 (centres undefined),inactive: 4.14% [at 46.1 µM],–
NC(=O)CCC(NC(=O)c1ccc(Cl)cc1)C(=O)O (centres undefined),inactive: -7.61% [at 46.1 µM],–
COc1ccc(-c2csc3ncnc(N4CCN(c5cccc(Cl)c5)CC4)c23)cc1,–,"inconclusive: 20 µM [inhibitor, single point]"
COc1ccc(CC(=O)Nc2nncs2)cc1OC,–,"inconclusive: 6.51 µM [activator, single point]"
COc1ccc(OC)c(C(=O)/C=C/c2ccccc2C(F)(F)F)c1,–,"inconclusive: 18.3 µM [inhibitor, single point]"
Cc1ccc(S(=O)(=O)Nc2cc(Cl)c(O)c3ncccc23)cc1,–,"inconclusive: 10 µM [inhibitor, partial curve, poor fit]"
O=C1CN(C(=O)c2ccc(S(=O)(=O)N3CCCC3)cc2)C(c2ccccc2)c2cc(Br)ccc2N1 (centres undefined),–,"inconclusive: 35.5 µM [inhibitor, single point]"
CCC1CN(C(=O)Nc2ccc(C)c(F)c2)c2ccccc2S1 (centres undefined),inactive: 1.53% [at 46.1 µM],–
CCCc1ccc(-c2cc(NC(=O)CSc3nnc(N)s3)n(-c3ccccc3)n2)cc1,–,"inconclusive: 35.5 µM [inhibitor, single point]"
COc1ccc(C(=O)Nc2cc(C)c(NC(=O)c3ccccn3)cn2)cc1,inactive: -4.22%,–
COc1cc(C(=O)NCCNC(=O)c2cnccn2)cc(OC)c1OC,inactive: -1.2%,–
CC(C)(C)NC(=O)COc1ccc(-c2ccccc2)cc1,–,"inconclusive: 13 µM [activator, single point]"
CC(C)(C)c1ccc(/C=C/C(=O)Nc2cccnc2)cc1,–,"inconclusive: 35.5 µM [inhibitor, partial curve, poor fit]"
CC(=O)/C(=N/Nc1cccc(Cl)c1)Sc1nnc(C(O)c2ccccc2)n1-c1ccccc1 (centres undefined),–,"inconclusive: 29.1 µM [inhibitor, single point]"
COC(=O)[C@@H]1C(c2ccccc2)(c2ccccc2)[C@@]1(C)C(=O)OC,–,"inconclusive: 23.1 µM [inhibitor, single point]"
CCCOc1ccc(C(=O)ON=C2CCN(C)CC2)cc1,inactive: 6.77%,–
CCOC(=O)c1c(C)nc2sc3c(=O)n(-c4ccc(OC)cc4)nnc3c2c1-c1ccc(OC)cc1,–,"inconclusive: 7.08 µM [inhibitor, full curve, poor fit]"

# 2 entries from above, set out differently:
SMILES | activity change, negative = inhibition | Potency
COc1ccc(OC)c(C(=O)/C=C/c2ccccc2C(F)(F)F)c1 | – | inconclusive: 18.3 µM [inhibitor, single point]
Cc1ccc(S(=O)(=O)Nc2cc(Cl)c(O)c3ncccc23)cc1 | – | inconclusive: 10 µM [inhibitor, partial curve, poor fit]

# The listing continues.

SMILES,"activity change, negative = inhibition",Potency
CC(C)C(c1nnnn1Cc1ccc(F)cc1)N1CCN(C2CCCC2)CC1 (centres undefined),–,"inconclusive: 1.26 µM [inhibitor, single point]"
Cc1ccc(C(=O)Nc2ccc(OCc3ccccc3)cc2)s1,–,"inconclusive: 12.6 µM [inhibitor, partial curve, poor fit]"
COc1ccccc1N1CCN(S(=O)(=O)c2ccc(-c3cc(C(F)(F)F)on3)s2)CC1,inactive: 0.113% [at 46.1 µM],–
COc1ccc(C(C(=O)NC2CCCCC2)N(C(=O)c2snc(C(N)=O)c2N)c2ccc(OC)cc2OC)cc1 (centres undefined),–,"inconclusive: 10 µM [inhibitor, partial curve, poor fit]"
Cc1noc(C)c1CSc1nnnn1-c1ccc(Cl)cc1,–,"inconclusive: 35.5 µM [inhibitor, single point]"
O=C(CSc1nc2cc3ccccc3cc2[nH]1)Nc1cccc(C(F)(F)F)c1,–,"inconclusive: 6.31 µM [inhibitor, single point]"
CC(C)CCNC(=O)C(=O)Nc1c2c(nn1-c1ccccc1)CS(=O)(=O)C2,–,"inconclusive: 6.31 µM [inhibitor, single point]"
N#Cc1c(NC(=O)/C=C/c2ccco2)sc2c1CCCC2,–,"inconclusive: 0.251 µM [inhibitor, full curve, poor fit]"
O=C(Nc1cccc(C(F)(F)F)c1)c1csc(-c2ccncc2)n1,–,"inconclusive: 11.2 µM [inhibitor, partial curve]"
COc1ccc(Cn2nnnc2CN(Cc2cc3cccc(C)c3[nH]c2=O)C2CCCC2)cc1,–,"inconclusive: 4.61 µM [inhibitor, full curve, poor fit]"
Nc1ccccc1Nc1cc(-c2ccccc2)nn1-c1cccc(Cl)c1,inactive: -21.2%,–
Cc1cccc(N=C2N=C(N)c3ccccc32)c1,–,"inconclusive: 18.3 µM [inhibitor, single point]"
COc1ccc(OC)c(C2CC(=O)N(c3cccc(C)c3)C3=C2C(=O)OC3)c1 (centres undefined),inactive: 4.96% [at 46.1 µM],–
O=C(COc1ccccc1)Nc1ccc(OCc2cc(=O)n3ccsc3n2)cc1,inactive: -9.59% [at 46.1 µM],–
COC(=O)[C@H](C)NC(=O)c1cc2c(cn1)[nH]c1ccccc12,inactive: 6.09% [at 46.1 µM],–
CC(CNC(=O)Cn1ncc2c3ccccc3n(Cc3cccc(Cl)c3)c2c1=O)c1ccccc1 (centres undefined),inactive: 1.39% [at 46.1 µM],–
C=CCNc1nc(-c2ccccn2)nnc1-c1ccccc1,–,"inconclusive: 29.1 µM [inhibitor, single point]"
CCC(c1nnnn1Cc1ccc(F)cc1)N1CCN(C2CCCCC2)CC1 (centres undefined),–,"inconclusive: 22.4 µM [inhibitor, partial curve, poor fit]"
COc1cccc(N2C(=O)C(CC(=O)Nc3cccc(F)c3)N(C(C)C)C2=O)c1 (centres undefined),–,"inconclusive: 20 µM [inhibitor, partial curve, poor fit]"
Cc1cccc(CC(=O)NC2CC(=O)N(c3cccc(F)c3)C2)c1 (centres undefined),inactive: 16% [at 46.1 µM],–
O=C1CC(=C(c2ccccc2)c2ccccc2)C(=O)N1CCCCN1CCN(c2ccccc2)CC1,–,"inconclusive: 35.5 µM [inhibitor, single point]"
CCOC(=O)c1c(NC(=O)CSc2cn(CCNC(=O)c3ccc(OCC)cc3)c3ccccc23)sc2c1CCCC2,inactive: -3.19% [at 46.1 µM],–
